Data taken from PMC9870890 (Nature Communications, 2023).
No constants are given. Whether binding was seen depends on the method and setting. In cells and extracts the contact can be indirect. Some entries that bind do so weakly or less than the wild type.

Amino acid sequences for entries named in this document (tags omitted).
UniProt P08172: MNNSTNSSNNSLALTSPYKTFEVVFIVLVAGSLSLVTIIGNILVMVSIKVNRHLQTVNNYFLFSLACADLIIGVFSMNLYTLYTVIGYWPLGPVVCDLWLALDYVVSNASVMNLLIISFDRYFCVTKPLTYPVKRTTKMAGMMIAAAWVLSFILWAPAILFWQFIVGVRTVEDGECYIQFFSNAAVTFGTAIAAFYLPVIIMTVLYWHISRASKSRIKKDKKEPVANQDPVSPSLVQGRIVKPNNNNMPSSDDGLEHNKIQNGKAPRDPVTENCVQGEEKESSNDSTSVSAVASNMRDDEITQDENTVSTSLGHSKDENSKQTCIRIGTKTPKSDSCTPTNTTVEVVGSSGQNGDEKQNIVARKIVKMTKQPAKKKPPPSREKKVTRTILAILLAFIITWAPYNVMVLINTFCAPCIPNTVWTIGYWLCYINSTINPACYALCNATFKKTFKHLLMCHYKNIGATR
UniProt P32121: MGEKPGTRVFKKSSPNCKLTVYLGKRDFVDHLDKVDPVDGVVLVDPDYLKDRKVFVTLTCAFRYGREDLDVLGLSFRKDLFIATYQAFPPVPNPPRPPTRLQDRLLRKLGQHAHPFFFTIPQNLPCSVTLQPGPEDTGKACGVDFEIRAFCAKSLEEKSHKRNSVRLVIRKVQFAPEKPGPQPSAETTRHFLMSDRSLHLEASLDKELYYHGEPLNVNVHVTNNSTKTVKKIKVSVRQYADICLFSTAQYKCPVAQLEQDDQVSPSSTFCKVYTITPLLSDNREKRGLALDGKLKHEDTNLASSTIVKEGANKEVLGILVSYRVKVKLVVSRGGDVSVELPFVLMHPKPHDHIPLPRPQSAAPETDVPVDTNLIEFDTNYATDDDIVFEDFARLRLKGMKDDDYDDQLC

Target: flag-tagged M2 receptor carrying the PKA fragment for enzyme complementation (human) (UniProt P08172)
Experiment: split reporter; PathHunter β-galactosidase fragment complementation in HEK293T cells; LY2119620 preincubated 30 min, then ACh or Ixo for 90 min; chemoluminescence

Substance: β-arrestin-2 (from UniProt P32121 1-409)
- binding: binds
